These are yes or no findings as the source states them, for the method shown. In cells and extracts the contact can be indirect. Where a sequence is shown, tags or fusion partners need not be part of it.
Target: T1, CASZ1b, C-terminal 3xTy1 tagged (doxycycline inducible, in SMS-CTRtetCASZ1b cells) (human) (UniProt Q86V15)
T1 sequence: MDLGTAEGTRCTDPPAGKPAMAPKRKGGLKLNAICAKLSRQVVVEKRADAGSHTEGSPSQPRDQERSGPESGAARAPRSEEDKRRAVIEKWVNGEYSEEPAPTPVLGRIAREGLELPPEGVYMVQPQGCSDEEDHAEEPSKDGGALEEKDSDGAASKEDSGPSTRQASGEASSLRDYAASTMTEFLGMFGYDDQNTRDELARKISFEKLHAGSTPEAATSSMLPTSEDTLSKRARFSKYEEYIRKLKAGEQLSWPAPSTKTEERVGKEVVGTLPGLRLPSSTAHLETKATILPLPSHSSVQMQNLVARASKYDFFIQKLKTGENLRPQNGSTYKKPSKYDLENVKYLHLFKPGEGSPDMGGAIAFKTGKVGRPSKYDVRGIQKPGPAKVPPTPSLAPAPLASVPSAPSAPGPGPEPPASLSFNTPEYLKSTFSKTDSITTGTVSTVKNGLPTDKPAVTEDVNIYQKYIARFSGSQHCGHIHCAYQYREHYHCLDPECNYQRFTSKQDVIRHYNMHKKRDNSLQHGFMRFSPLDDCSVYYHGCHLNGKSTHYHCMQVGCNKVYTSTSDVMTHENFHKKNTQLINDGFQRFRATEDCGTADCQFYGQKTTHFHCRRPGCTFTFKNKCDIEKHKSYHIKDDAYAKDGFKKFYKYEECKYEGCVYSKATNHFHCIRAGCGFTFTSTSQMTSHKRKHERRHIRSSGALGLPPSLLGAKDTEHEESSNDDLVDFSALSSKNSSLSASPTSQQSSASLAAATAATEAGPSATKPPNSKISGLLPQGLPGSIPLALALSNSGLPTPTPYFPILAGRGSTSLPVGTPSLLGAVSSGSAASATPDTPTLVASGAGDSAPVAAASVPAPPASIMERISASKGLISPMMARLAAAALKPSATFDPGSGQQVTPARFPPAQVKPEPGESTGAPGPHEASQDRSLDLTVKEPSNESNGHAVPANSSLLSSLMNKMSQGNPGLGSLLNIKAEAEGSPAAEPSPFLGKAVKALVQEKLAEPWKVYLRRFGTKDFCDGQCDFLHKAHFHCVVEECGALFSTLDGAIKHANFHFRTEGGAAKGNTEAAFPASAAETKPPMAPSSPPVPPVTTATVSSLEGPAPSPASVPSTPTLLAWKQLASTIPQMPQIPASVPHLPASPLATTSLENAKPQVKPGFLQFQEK
Test: co-IP; rabbit anti-CASZ1 antibody on Dynabead M-280 Sheep Anti-Rabbit IgG magnetic beads; whole cell extracts from CTRtetCASZ1b cells treated with Dox for 24 h, incubated 4 h at 4 °C; western blot

- binding: no binding
B1: MYOG (protein, UniProt P15173 1-224)
chain: MELYETSPYFYQEPRFYDGENYLPVHLQGFEPPGYERTELTLSPEAPGPLEDKGLGTPEHCPGQCLPWACKVCKRKSVSVDRRRAATLREKRRLKKVNEAFEALKRSTLLNPNQRLPKVEILRSAIQYIERLQALLSSLNQEERDLRYRGGGGPQPGVPSECSSHSASCSPEWGSALEFSANPGDHLLTADPTDAHNLHSLTSIVDSITVEDVSVAFPDETMPN
